No constants are given. Whether binding was seen depends on the method and setting. Some entries that bind do so weakly or less than the wild type.

Amino acid sequences for entries named in this document (tags omitted). A change or cut given only in a name is not applied to a line headed by its entry.
UniProt Q02223: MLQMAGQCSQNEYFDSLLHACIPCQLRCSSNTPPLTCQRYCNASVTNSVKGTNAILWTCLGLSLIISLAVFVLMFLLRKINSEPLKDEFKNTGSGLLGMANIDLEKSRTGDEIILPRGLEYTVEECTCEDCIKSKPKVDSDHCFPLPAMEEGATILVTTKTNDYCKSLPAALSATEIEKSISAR

Experiment [1] has as its target extracellular domain of human CD269 (BCMA, TNFRSF17), purified (human) (UniProt Q02223). As to the kind of experiment: ELISA on coated BCMA extracellular domain.
Experiment [2] has the same target. As to the kind of experiment: SPR with BCMA at 1.1, 3.3, 10.0, 30.0 and 90.0 nM.
Experiment [3] shares this target. As to the kind of experiment: ELISA on microtiter plates coated with the extracellular domain of human BCMA, detection with HRP-conjugated anti-human secondary antibody; x axis antibody (ng). On the technique in general: In an ELISA, binding on a coated surface is turned into a signal by an enzyme label.
For experiment [4] the target is unchanged. As to the kind of experiment: crystal structure; complex isolated by size exclusion chromatography.
Experiment [5] has the same target. As to the kind of experiment: ELISA of the hybridoma J22.9 supernatant on BCMA-coated microtiter plates at the indicated time points (days by the legend).
Experiment [6] shares this target. As to the kind of experiment: ELISA on BCMA-coated plates.

B1: J22.9-xi chimeric antibody (mouse VH/VL of hybridoma J22.9 on human IgG1 and kappa constant domains) (antibody, V domains shown)
VH: QVQLQQSGGGLVQPGGSLKLSCAASGIDFSRYWMSWVRRAPGKGLEWIGEINPDSSTINYAPSLKDKFIISRDNAKNTLYLQMSKVRSEDTALYYCASLYYDYGDAMDYWGQGTSVTVSS
VL: DIVMTQSQRFMTTSVGDRVSVTCKASQSVDSNVAWYQQKPRQSPKALIFSASLRFSGVPARFTGSGSGTDFTLTISNLQSEDLAEYFCQQYNNYPLTFGAGTKLELKR
modifications: N-linked oligosaccharide chain at Asn297
notes: Full length IgG made in 293-6E cells; the constant domains are marked 'Used in J22.9-xi'
For the molecule B1, the binding entry in experiment [1], in experiment [2] and in experiment [3] was “binds” in each case.

B2: Fab fragment prepared from J22.9-xi (Fab, V domains shown, not shown: a dimerising Fc or GST)
VH: QVQLQQSGGGLVQPGGSLKLSCAASGIDFSRYWMSWVRRAPGKGLEWIGEINPDSSTINYAPSLKDKFIISRDNAKNTLYLQMSKVRSEDTALYYCASLYYDYGDAMDYWGQGTSVTVSS
VL: DIVMTQSQRFMTTSVGDRVSVTCKASQSVDSNVAWYQQKPRQSPKALIFSASLRFSGVPARFTGSGSGTDFTLTISNLQSEDLAEYFCQQYNNYPLTFGAGTKLELKR
modifications: reduced cysteines alkylated with iodoacetamide
Consider B2, for which, in experiment [4], the binding result is on record as “binds”.

B3: mouse anti-BCMA antibody secreted by hybridoma J22.9 (supernatant) (antibody, V domains shown)
VH: QVQLQQSGGGLVQPGGSLKLSCAASGIDFSRYWMSWVRRAPGKGLEWIGEINPDSSTINYAPSLKDKFIISRDNAKNTLYLQMSKVRSEDTALYYCASLYYDYGDAMDYWGQGTSVTVSS
VL: DIVMTQSQRFMTTSVGDRVSVTCKASQSVDSNVAWYQQKPRQSPKALIFSASLRFSGVPARFTGSGSGTDFTLTISNLQSEDLAEYFCQQYNNYPLTFGAGTKLELKR
As to B3, the binding entry in experiment [5] and in experiment [6] was “binds” in each case.
